The values below come from PubChem BioAssay AID248 (DTP/NCI, 2004).

This test relates to L1210 leukemia ip in BDF1 mice, survival T/C. Kind of test: NCI In Vivo Anticancer Drug Screen. Data for tumor model L1210 Leukemia (intraperitoneal) in B6D2F1 (BDF1) mice. The following applies: T/C endpoint: mean survival time, higher T/C = longer survival.
Where [1] appears, read: dose: 200.0 mg/kg/injection, schedule: Q01DX009 (ip), vehicle: saline with Tween-80.
[2] abbreviates: dose: 50.0 mg/kg/injection, schedule: Q04DX003 (ip), vehicle: saline with Tween-80.
[3] abbreviates: dose: 100.0 mg/kg/injection, schedule: Q04DX003 (ip), vehicle: saline.
Where [4] appears, read: dose: 180.0 mg/kg/injection, schedule: Q01DX009 (ip), vehicle: saline.

The list shows only some results of the screen, not a fair sample: it is rich in T/C values a quarter to a half above the control, in often repeated tests (any T/C) and in doses without a T/C. Other doses and runs of a compound stand elsewhere. T/C is the treated group as % of the vehicle group. Some doses have a count of surviving animals in place of a T/C: the source holds a T/C of zero for them, seemingly a mark for toxic or unscored doses. Some survivor counts are full or nearly so, which does not show that the dose was tolerated: survival well below the control is almost never listed, so the zero probably covers shortened survival too. Survivors were counted at the toxicity check, usually on the fifth day, unless a day is given; later deaths do not show. Schedules are NCI's codes, taken here to give the interval after Q, in days (D) or hours (H), and the number of doses after X. Some entries were tested several times; their values stand side by side, smallest first. Some structures stand for samples that the source files as different forms (salt, stereo form or complex); doses refer to the form tested. Where survival is the endpoint, this PubChem deposit counts one and a half times the control or more as active, and values a quarter to a half above the control carry no call in these data; other NCI protocols may use other cut-offs. Some T/C values carry the count of animals alive at the toxicity check (mostly the fifth day); where none is given, no animal had died by that day. Marks such as (2×) count equal records among those shown.

As for `Cc1ccc(NC(=O)Oc2ccc(Br)cc2Br)c(Cl)c1`, for the setting “dose: 100.0 mg/kg/injection, schedule: Q01DX009 (ip), vehicle: saline with Tween-80”, the T/C was 96, 97 (2×), 101 % of control. The survivor count reads like this: under setting [1], 5 of 6 and 3 of 3; (dose: 400.0 mg/kg/injection, schedule: Q01DX009 (ip), vehicle: saline with Tween-80) 3 of 3 and 6 of 6.

Turning to `CCOC(=O)c1c[n]([Hg][n]2cc(C(=O)OCC)c(Nc3ccccc3Cl)nc2=O)c(=O)nc1Nc1ccccc1Cl`, the survivor count reads like this: (dose: 25.0 mg/kg/injection, schedule: Q04DX003 (ip), vehicle: saline with Tween-80) 3 of 6; under setting [2], 0 of 6.

In the case of `COC(=N)c1nn(C2OC(CO)C(O)C2O)c2ncnc(N)c12` (configuration not stated), the T/C is 136 % of control (dose: 100.0 mg/kg/injection, schedule: Q01DX005 (ip), vehicle: saline) and 127 % of control (dose: 200.0 mg/kg/injection, schedule: Q01DX005 (ip), vehicle: saline).

`O=c1cc(-c2ccccc2)[nH]c(=S)[nH]1`: the survivor count under setting [1] is reported as 6 of 6.

As for `CC1(C#N)CC(C#N)Nc2ccccc2N1` (configuration not stated), the survivor count (dose: 400.0 mg/kg/injection, schedule: Q01DX009 (ip), vehicle: saline) is recorded as 3 of 6.

As for `COc1n[n+]([O-])c([N+](=O)[O-])c(C)c1[N+](=O)[O-]`, the survivor count is 0 of 3 (dose: 37.5 mg/kg/injection, schedule: Q04DX002 (ip), vehicle: Klucel (hydroxypropylcellulose) (HPC)); 0 of 3 (dose: 75.0 mg/kg/injection, schedule: Q04DX002 (ip), vehicle: Klucel (hydroxypropylcellulose) (HPC)); 0 of 3 (dose: 150.0 mg/kg/injection, schedule: Q04DX002 (ip), vehicle: Klucel (hydroxypropylcellulose) (HPC)).

Consider `C=CCNCCN1CCN(CCCN2c3ccccc3Sc3ccc(C(F)(F)F)cc32)CC1`, for which the survivor count runs as follows: (dose: 50.0 mg/kg/injection, schedule: Q01DX009 (ip), vehicle: saline) 4 of 6; under setting [3], 1 of 6.

Regarding `CC(Cl)CN(CC(C)Cl)c1ccc(S(=O)(=O)Nc2ncccn2)cc1` (configuration not stated), the survivor count (dose: 90.0 mg/kg/injection, schedule: Q01DX009 (ip), vehicle: saline) is 0 of 6; the survivor count under setting [4] is 0 of 6 and 3 of 6; the survivor count (dose: 270.0 mg/kg/injection, schedule: Q01DX009 (ip), vehicle: other) is reported as 2 of 6; the survivor count (dose: 270.0 mg/kg/injection, schedule: Q01DX009 (ip), vehicle: saline) is on record as 3 of 6; the survivor count (dose: 360.0 mg/kg/injection, schedule: Q01DX009 (ip), vehicle: saline) was 0 of 6 and 1 of 6. For the same molecule, the T/C (dose: 120.0 mg/kg/injection, schedule: Q01DX009 (ip), vehicle: saline with Tween-80) was 129 % of control; the T/C (dose: 120.0 mg/kg/injection, schedule: Q01DX009 (ip), vehicle: saline) was 127 % of control; the T/C (dose: 180.0 mg/kg/injection, schedule: Q01DX009 (ip), vehicle: saline with Tween-80) is 126 % of control [4 of 6 alive]; the T/C under setting [4] is 106 and 120 % of control.

As for `Cc1[nH]nc2c(=S)[nH]c(=O)[nH]c12`, the survivor count (dose: 300.0 mg/kg/injection, schedule: Q01DX001 (ip), vehicle: saline) is 1 of 6.

Consider `O=C(O)CC1C=CCC1` (configuration not stated), for which the survivor count is reported as 0 of 3 (dose: 50.0 mg/kg/injection, schedule: Q04DX003 (ip), vehicle: saline) and 0 of 3 under setting [3].

Consider `CC(C)C1(C(=O)N2CCCCC2=O)SCCCS1`, for which the survivor count under setting [2] was 6 of 6.

With `C=CCNC(=S)Nc1cc(Cl)ccc1OC`, the survivor count (dose: 200.0 mg/kg/injection, schedule: Q01DX009 (ip), vehicle: Klucel (hydroxypropylcellulose) (HPC)) was 6 of 6.

In the case of `COC(=O)c1cn2c(c1C(=O)OC)CCC2`, the survivor count (dose: 300.0 mg/kg/injection, schedule: Q01DX009 (ip), vehicle: other) was 3 of 6.

For `O=C1c2ccccc2C(=O)c2c3c(cc(NCCNCCO)c21)N(CCO)CCN3`, the T/C by setting is: (dose: 12.5 mg/kg/injection, schedule: Q01DX009 (ip), vehicle: DMSO) 130 % of control; (dose: 100.0 mg/kg/injection, schedule: Q01DX009 (ip), vehicle: DMSO) 125 % of control. Moreover, the survivor count (dose: 400.0 mg/kg/injection, schedule: Q01DX009 (ip), vehicle: DMSO) is 3 of 6.

`NC(=S)N/N=C\c1nccc2c(N)cccc12`: the T/C (dose: 12.5 mg/kg/injection, schedule: Q01DX009 (ip), vehicle: saline with Tween-80) was 142 % of control; the T/C (dose: 25.0 mg/kg/injection, schedule: Q01DX009 (ip), vehicle: saline with Tween-80) was 127 % of control; the T/C (dose: 75.0 mg/kg/injection, schedule: Q01DX009 (ip), vehicle: saline with Tween-80) is 133 % of control; the T/C (dose: 100.0 mg/kg/injection, schedule: Q04DX002 (ip), vehicle: saline with Tween-80) is 128 % of control; the T/C (dose: 200.0 mg/kg/injection, schedule: Q04DX002 (ip), vehicle: saline with Tween-80) is 128 % of control; the T/C (dose: 400.0 mg/kg/injection, schedule: Q04DX002 (ip), vehicle: saline with Tween-80) was 139 % of control.

As for `CCCCCCCCOP(=O)(N1CC1)N1CC1`, the T/C is, setting by setting: (dose: 4.67 mg/kg/injection, schedule: Q01DX015 (ip), vehicle: saline) 127 % of control; (dose: 7.0 mg/kg/injection, schedule: Q01DX015 (ip), vehicle: saline) 140 % of control; (dose: 8.0 mg/kg/injection, schedule: Q01DX015 (ip), vehicle: saline) 132 % of control; (dose: 12.0 mg/kg/injection, schedule: Q01DX001 (ip), vehicle: saline) 128 % of control; (dose: 18.0 mg/kg/injection, schedule: Q01DX001 (ip), vehicle: saline) 130 % of control; (dose: 28.0 mg/kg/injection, schedule: Q01DX001 (ip), vehicle: saline) 139 % of control. The T/C is 130 % of control (dose: 30.0 mg/kg/injection, schedule: Q01DX015 (ip), vehicle: saline); 138 % of control (dose: 44.4 mg/kg/injection, schedule: Q01DX001 (ip), vehicle: saline); 140 % of control (dose: 50.0 mg/kg/injection, schedule: Q01DX001 (ip), vehicle: saline); 135 % of control [5 of 6 alive] (dose: 50.0 mg/kg/injection, schedule: Q01DX015 (ip), vehicle: saline); 193, 197, 233, 271 % of control [5 of 6 alive] (dose: 100.0 mg/kg/injection, schedule: Q01DX001 (ip), vehicle: saline). Moreover, the survivor count is given as 3 of 6 (dose: 75.0 mg/kg/injection, schedule: Q01DX015 (ip), vehicle: saline); 0 of 6 (dose: 112.0 mg/kg/injection, schedule: Q01DX015 (ip), vehicle: saline); 3 of 6 (dose: 150.0 mg/kg/injection, schedule: Q01DX001 (ip), vehicle: saline); 0 of 4 (dose: 200.0 mg/kg/injection, schedule: Q01DX001 (ip), vehicle: saline); 0 of 4 (dose: 400.0 mg/kg/injection, schedule: Q01DX001 (ip), vehicle: saline).

For `FC1(F)SC2CC/C=C\CCC2C1(F)F` (configuration not stated), the survivor count is, setting by setting: (dose: 6.0 mg/kg/injection, schedule: Q01DX009 (ip), vehicle: Klucel (hydroxypropylcellulose) (HPC)) 0 of 6; (dose: 6.25 mg/kg/injection, schedule: Q04DX003 (ip), vehicle: Klucel (hydroxypropylcellulose) (HPC)) 0 of 6; (dose: 12.5 mg/kg/injection, schedule: Q04DX003 (ip), vehicle: Klucel (hydroxypropylcellulose) (HPC)) 0 of 6; (dose: 25.0 mg/kg/injection, schedule: Q04DX003 (ip), vehicle: Klucel (hydroxypropylcellulose) (HPC)) 6 of 6; (dose: 50.0 mg/kg/injection, schedule: Q04DX003 (ip), vehicle: Klucel (hydroxypropylcellulose) (HPC)) 6 of 6.

On to `CCc1nccc(=O)[nH]1`, for which the survivor count (dose: 400.0 mg/kg/injection, schedule: Q04DX003 (ip), vehicle: saline) was 0 of 6 and 1 of 6.

Turning to `CC(=O)NN=C1CCC(=NNC(C)=O)CC1`, the survivor count is reported as 6 of 6 (dose: 200.0 mg/kg/injection, schedule: Q04DX003 (ip), vehicle: Klucel (hydroxypropylcellulose) (HPC)) and 1 of 6 (dose: 400.0 mg/kg/injection, schedule: Q04DX003 (ip), vehicle: Klucel (hydroxypropylcellulose) (HPC)).
